Laboratory results taken from the supplement of paper PMC6411743.
± gives the standard deviation of the averaged measurements. Only a part is listed here, and it is no random draw. Most values lie at the level of the controls, where differences are scatter.

The chains behind the UniProt entries cited, without tags or fusion partners. Where a name states a change or a piece, a line headed by the entry shows the natural chain unless it says otherwise.
UniProt Q96NT0: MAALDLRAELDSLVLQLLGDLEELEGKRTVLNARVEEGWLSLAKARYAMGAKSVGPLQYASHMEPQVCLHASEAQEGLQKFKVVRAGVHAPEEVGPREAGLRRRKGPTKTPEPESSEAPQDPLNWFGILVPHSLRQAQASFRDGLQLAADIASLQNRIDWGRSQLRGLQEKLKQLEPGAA
UniProt Q96SB4, whole entry: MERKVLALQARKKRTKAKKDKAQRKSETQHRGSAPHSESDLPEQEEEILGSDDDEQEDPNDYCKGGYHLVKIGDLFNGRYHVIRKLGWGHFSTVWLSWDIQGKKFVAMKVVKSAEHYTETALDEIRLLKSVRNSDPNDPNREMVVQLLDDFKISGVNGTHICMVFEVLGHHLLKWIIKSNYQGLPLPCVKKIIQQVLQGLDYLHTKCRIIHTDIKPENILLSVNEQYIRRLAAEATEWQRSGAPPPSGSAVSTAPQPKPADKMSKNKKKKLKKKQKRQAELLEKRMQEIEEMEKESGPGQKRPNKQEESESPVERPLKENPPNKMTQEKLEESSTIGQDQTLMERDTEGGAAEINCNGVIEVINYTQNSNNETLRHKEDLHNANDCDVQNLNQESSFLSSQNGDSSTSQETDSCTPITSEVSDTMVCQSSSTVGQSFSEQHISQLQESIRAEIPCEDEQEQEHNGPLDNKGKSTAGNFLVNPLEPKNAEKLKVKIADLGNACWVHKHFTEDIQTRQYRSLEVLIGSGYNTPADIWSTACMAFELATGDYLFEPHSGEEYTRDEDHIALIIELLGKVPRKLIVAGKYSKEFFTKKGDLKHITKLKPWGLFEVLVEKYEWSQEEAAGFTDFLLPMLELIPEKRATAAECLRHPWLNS
UniProt Q96LT9: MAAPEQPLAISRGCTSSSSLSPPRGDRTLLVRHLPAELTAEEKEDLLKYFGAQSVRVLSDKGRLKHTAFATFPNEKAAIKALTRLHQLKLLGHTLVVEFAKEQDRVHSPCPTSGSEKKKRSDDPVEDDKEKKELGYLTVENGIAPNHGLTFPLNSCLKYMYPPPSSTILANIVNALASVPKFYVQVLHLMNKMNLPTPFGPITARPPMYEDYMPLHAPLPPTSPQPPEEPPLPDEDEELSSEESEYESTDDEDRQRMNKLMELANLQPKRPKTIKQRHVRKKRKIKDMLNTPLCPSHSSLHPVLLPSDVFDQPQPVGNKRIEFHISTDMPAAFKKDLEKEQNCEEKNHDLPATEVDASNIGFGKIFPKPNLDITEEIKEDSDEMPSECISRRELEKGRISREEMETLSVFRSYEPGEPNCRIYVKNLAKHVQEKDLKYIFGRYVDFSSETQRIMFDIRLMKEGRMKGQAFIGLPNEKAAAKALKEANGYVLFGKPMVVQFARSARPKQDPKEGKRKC
UniProt Q96T23: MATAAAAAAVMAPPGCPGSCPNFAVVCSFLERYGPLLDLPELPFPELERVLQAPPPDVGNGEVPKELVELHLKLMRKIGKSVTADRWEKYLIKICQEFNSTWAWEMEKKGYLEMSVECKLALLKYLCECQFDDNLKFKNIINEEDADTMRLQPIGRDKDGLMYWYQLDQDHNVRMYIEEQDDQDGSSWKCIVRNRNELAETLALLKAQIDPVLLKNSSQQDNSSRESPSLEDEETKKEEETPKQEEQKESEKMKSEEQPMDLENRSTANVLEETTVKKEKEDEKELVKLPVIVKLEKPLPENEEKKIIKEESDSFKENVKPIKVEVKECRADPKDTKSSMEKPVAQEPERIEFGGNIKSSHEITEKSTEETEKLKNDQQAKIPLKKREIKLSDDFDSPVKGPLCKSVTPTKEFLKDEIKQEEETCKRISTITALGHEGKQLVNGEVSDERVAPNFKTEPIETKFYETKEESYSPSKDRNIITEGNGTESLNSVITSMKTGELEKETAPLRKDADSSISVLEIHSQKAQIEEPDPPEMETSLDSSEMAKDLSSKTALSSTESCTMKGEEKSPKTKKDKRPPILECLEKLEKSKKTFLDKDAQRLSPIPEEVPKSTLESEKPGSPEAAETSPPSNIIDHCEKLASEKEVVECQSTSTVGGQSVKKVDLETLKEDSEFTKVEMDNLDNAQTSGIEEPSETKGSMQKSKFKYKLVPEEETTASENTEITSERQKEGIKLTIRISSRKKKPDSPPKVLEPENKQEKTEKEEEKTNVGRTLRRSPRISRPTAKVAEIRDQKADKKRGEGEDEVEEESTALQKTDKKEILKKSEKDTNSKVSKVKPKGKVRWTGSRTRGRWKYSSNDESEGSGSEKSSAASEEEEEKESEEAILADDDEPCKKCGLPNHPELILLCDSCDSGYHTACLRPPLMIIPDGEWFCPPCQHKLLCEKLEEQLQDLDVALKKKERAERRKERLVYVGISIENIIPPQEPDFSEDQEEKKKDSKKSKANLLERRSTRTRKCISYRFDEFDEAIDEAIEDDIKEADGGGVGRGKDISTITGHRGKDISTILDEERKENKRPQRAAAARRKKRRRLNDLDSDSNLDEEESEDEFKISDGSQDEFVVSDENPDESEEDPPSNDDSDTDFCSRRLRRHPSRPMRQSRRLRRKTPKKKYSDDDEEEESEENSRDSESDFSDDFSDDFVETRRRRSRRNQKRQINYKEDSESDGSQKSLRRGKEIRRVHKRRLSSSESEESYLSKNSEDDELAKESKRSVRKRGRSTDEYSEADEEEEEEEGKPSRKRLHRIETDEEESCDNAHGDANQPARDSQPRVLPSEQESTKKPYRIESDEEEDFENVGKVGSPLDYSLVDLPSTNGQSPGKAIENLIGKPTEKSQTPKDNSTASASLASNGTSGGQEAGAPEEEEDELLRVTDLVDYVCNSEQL
UniProt Q96II8: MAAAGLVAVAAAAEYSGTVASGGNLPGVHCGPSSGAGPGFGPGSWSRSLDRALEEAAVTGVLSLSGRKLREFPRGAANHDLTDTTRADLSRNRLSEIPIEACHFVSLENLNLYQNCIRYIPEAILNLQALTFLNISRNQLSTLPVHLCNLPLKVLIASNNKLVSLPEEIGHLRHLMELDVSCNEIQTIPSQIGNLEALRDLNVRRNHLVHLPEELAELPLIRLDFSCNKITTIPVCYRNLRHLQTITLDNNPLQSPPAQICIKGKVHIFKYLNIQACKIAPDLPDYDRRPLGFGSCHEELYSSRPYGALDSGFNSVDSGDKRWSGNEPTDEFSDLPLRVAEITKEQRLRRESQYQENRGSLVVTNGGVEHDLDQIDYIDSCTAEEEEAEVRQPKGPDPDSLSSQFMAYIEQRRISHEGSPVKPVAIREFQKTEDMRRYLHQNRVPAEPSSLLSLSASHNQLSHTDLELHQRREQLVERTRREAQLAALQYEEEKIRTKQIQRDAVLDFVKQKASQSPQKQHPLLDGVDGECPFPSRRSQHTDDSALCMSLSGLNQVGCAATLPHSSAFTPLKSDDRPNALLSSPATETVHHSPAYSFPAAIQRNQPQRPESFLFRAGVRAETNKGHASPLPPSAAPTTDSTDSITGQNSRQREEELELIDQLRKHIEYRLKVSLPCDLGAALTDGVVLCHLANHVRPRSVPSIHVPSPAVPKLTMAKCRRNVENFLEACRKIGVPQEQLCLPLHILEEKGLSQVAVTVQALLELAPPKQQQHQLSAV
UniProt Q96JM3: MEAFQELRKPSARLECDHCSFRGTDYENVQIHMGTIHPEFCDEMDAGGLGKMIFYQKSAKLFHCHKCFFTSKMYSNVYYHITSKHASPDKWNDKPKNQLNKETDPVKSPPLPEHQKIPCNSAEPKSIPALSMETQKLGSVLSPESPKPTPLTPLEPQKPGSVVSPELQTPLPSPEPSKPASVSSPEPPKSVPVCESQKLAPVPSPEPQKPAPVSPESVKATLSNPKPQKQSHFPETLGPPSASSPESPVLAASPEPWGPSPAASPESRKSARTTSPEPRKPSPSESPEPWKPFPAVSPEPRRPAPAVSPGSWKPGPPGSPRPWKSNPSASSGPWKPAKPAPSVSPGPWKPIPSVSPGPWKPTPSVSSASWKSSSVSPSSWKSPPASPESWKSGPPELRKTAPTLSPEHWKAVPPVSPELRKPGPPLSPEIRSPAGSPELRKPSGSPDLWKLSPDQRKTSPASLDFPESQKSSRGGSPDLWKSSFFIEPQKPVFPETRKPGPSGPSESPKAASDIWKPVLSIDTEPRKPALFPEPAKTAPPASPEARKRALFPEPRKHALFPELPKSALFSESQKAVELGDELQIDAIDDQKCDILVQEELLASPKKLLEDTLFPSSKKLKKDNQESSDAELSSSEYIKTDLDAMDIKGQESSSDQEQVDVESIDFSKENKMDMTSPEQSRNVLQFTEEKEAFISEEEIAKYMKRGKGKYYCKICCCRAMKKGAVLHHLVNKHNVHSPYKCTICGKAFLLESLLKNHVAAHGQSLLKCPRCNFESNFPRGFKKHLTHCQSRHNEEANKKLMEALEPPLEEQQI
UniProt Q96CN4: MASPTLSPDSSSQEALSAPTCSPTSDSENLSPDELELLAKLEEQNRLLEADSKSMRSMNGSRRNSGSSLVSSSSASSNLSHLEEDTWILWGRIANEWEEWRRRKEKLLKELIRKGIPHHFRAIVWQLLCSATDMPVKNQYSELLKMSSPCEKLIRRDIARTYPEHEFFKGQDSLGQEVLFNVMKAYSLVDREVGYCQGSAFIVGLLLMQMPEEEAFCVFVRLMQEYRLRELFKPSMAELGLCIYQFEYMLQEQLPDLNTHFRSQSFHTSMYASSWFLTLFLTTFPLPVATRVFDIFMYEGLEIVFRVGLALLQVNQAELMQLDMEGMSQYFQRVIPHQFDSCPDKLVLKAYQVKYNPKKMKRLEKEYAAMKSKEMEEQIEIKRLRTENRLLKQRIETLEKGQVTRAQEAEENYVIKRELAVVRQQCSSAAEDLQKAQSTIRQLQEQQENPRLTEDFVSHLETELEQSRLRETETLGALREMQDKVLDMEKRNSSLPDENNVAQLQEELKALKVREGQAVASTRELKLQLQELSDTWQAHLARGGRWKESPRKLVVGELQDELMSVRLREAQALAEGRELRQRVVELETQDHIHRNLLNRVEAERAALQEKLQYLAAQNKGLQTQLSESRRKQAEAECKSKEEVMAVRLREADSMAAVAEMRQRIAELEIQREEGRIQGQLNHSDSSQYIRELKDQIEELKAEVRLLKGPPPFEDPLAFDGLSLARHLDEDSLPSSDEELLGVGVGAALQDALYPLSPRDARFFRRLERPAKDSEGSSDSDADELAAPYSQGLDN
UniProt Q96IX5: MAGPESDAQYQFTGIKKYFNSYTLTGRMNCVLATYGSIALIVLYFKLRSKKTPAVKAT
UniProt Q96CT7: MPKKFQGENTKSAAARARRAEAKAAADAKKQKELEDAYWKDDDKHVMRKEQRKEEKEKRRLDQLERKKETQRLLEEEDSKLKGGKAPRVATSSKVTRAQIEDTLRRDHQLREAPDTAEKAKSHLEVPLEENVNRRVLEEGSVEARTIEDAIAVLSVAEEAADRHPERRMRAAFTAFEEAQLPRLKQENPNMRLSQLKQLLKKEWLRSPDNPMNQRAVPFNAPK
UniProt Q96DT6: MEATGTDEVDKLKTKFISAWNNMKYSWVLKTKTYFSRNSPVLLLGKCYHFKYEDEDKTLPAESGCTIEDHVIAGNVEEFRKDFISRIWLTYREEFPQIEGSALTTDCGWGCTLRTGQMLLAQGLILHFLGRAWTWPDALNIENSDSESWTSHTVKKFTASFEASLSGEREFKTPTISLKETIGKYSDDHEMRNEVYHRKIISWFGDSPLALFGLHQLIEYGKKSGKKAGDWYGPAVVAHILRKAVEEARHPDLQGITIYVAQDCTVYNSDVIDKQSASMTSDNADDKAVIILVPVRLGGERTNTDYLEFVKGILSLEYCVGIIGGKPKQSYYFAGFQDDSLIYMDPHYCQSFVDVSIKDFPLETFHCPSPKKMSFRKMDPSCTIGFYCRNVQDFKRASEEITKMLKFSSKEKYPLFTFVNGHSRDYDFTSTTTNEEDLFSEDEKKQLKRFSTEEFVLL
UniProt Q96DU7: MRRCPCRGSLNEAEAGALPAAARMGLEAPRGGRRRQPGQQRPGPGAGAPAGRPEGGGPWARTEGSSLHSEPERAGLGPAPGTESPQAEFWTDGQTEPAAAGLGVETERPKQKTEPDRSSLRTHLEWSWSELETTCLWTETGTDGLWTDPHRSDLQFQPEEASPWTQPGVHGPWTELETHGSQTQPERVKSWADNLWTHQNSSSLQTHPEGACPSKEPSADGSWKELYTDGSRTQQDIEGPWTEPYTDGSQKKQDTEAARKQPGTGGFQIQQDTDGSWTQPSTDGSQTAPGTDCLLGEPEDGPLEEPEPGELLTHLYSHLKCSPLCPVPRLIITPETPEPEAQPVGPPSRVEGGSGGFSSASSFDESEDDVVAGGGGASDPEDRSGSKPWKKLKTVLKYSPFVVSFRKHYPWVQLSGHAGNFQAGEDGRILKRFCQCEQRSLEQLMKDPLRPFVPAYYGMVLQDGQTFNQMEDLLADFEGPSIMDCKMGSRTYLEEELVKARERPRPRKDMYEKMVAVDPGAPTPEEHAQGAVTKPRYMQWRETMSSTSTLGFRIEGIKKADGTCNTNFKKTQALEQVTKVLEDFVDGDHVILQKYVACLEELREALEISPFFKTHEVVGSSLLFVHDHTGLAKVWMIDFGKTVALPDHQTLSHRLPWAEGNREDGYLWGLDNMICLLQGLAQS

Compound: Nc1ncnc2c1ncn2[C@@H]1O[C@H](COP(=O)(O)OP(=O)(O)OP(=O)(O)O)[C@@H](O)[C@H]1O [adenosine triphosphate]
Test: NP40-soluble protein abundance relative to vehicle (solubility fold change) (ratio); higher = more soluble protein in presence of ATP
Summary of the method: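 In three independent experiments, Jurkat crude lysate made by Dounce homogenisation was treated for 10 min at room temperature and then 3 min at 37 °C with eight concentrations ranging from 0.1 to 10 mM. It was then solubilised with 0.8% NP40 plus benzonase for 60 min at 4 °C and ultracentrifuged. The supernatant was TMT-labelled for LC-MS/MS, and each value is the fold change against the detergent-processed vehicle for the same replicate, using vsn-normalised intensities.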

Row | Target | NP40-soluble protein abundance (concentration: 0.1mM) | NP40-soluble protein abundance (concentration: 0.5mM) | NP40-soluble protein abundance (concentration: 1mM) | NP40-soluble protein abundance (concentration: 2mM) | NP40-soluble protein abundance (concentration: 4mM) | NP40-soluble protein abundance (concentration: 6mM) | NP40-soluble protein abundance (concentration: 8mM) | NP40-soluble protein abundance (concentration: 10mM)
1 | UniProt Q96NT0 and related entries | 0.863 ± 0.098 | 0.817 ± 0.14 | 0.832 ± 0.11 | 0.87 ± 0.12 | 0.886 ± 0.061 | 0.84 ± 0.16 | 0.863 ± 0.11 | 0.849 ± 0.16
2 | SRPK1 (UniProt Q96SB4) | 1.12 ± 0.054 | 1.25 ± 0.088 | 1.31 ± 0.091 | 1.39 ± 0.079 | 1.5 ± 0.099 | 1.63 ± 0.12 | 1.67 ± 0.083 | 1.74 ± 0.11
3 | UniProt Q96P11-2 | 1.041 ± 0.007 | 1.03 ± 0.011 | 1.05 ± 0.039 | 1.05 ± 0.03 | 1.11 ± 0.058 | 1.09 ± 0.068 | 1.13 ± 0.083 | 1.18 ± 0.072
4 | COG8 (UniProt Q96MW5) | 0.959 ± 0.067 | 0.925 ± 0.097 | 0.938 ± 0.057 | 0.917 ± 0.029 | 0.937 ± 0.048 | 0.898 ± 0.068 | 0.902 ± 0.06 | 0.975 ± 0.054
5 | UniProt Q96QF0 and related entries | 1.08 ± 0.084 | 1.02 ± 0.03 | 0.996 ± 0.032 | 0.946 ± 0.021 | 1.03 ± 0.034 | 1.001 ± 0.0051 | 0.994 ± 0.062 | 0.979 ± 0.078
6 | UniProt Q96ST2 and related entries | 0.9663 ± 0.0096 | 0.95 ± 0.063 | – | – | – | – | – | –
7 | IFT140 (UniProt Q96RY7) | 1.04 ± 0.065 | 1.04 ± 0.11 | – | – | – | – | – | –
8 | UniProt Q96GM8 and related entries | 1.06 ± 0.056 | 1.11 ± 0.066 | 1.06 ± 0.095 | 1.22 ± 0.14 | 1.35 ± 0.12 | 1.38 ± 0.12 | 1.53 ± 0.13 | 1.82 ± 0.32
9 | UniProt Q96LT9 and related entries | 1.1 ± 0.085 | 1.35 ± 0.19 | 1.31 ± 0.027 | 1.46 ± 0.034 | 1.75 ± 0.15 | 1.95 ± 0.12 | 1.78 ± 0.02 | 2.06 ± 0.096
10 | ZNF512B (UniProt Q96KM6) | 0.976 ± 0.027 | 0.993 ± 0.035 | 1.01 ± 0.04 | 1.05 ± 0.02 | 1.07 ± 0.024 | 1.12 ± 0.044 | 1.08 ± 0.03 | 1.08 ± 0.043
11 | UniProt Q96T23 and related entries | 1.03 ± 0.013 | 1.28 ± 0.086 | 1.48 ± 0.043 | 1.62 ± 0.071 | 1.81 ± 0.041 | 2 ± 0.1 | 1.96 ± 0.039 | 2.13 ± 0.11
12 | UniProt Q96II8 and related entries | 1.04 ± 0.071 | 1.1 ± 0.018 | 1.17 ± 0.11 | 1.21 ± 0.057 | 1.2 ± 0.035 | 1.22 ± 0.078 | 1.17 ± 0.068 | 1.21 ± 0.034
13 | CDK5RAP3 (UniProt Q96JB5) | 0.963 ± 0.035 | 0.999 ± 0.056 | 0.997 ± 0.041 | 1.05 ± 0.066 | 1.08 ± 0.065 | 1.11 ± 0.068 | 1.12 ± 0.045 | 1.14 ± 0.099
14 | PUS7 (UniProt Q96PZ0) | 1.02 ± 0.045 | 0.996 ± 0.013 | 0.969 ± 0.059 | 0.974 ± 0.057 | 0.967 ± 0.034 | 0.941 ± 0.076 | 0.963 ± 0.03 | 0.968 ± 0.036
15 | UniProt Q96JM3 | 0.996 ± 0.043 | 1.03 ± 0.069 | 1.02 ± 0.043 | 1.02 ± 0.042 | 1.03 ± 0.048 | 1.12 ± 0.037 | 1.1 ± 0.039 | 1.12 ± 0.025
16 | UniProt Q96CN4 and related entries | 1.03 ± 0.098 | 1.03 ± 0.077 | 0.985 ± 0.035 | 1.02 ± 0.061 | 1.13 ± 0.21 | 1.1 ± 0.084 | 1 ± 0.034 | 1.05 ± 0.059
17 | UniProt Q96IX5 | 0.917 ± 0.17 | 0.998 ± 0.33 | 0.875 ± 0.049 | 0.935 ± 0.11 | 0.936 ± 0.16 | 0.976 ± 0.15 | 0.909 ± 0.16 | 0.99 ± 0.14
18 | CCDC124 (UniProt Q96CT7) | 0.967 ± 0.14 | 0.944 ± 0.1 | 1.08 ± 0.15 | 1.14 ± 0.089 | 1.3 ± 0.2 | 1.56 ± 0.2 | 1.64 ± 0.1 | 1.96 ± 0.36
19 | PPP1R10 (UniProt Q96QC0) | 0.982 ± 0.011 | 1.01 ± 0.026 | – | – | – | – | – | –
20 | SNRNP40 (UniProt Q96DI7) | 0.975 ± 0.03 | 1.03 ± 0.048 | – | – | – | – | – | –
21 | ATG4C (UniProt Q96DT6) | 0.99 ± 0.018 | 1.03 ± 0.09 | 1.036 ± 0.003 | 1.05 ± 0.081 | 1.04 ± 0.041 | 0.992 ± 0.12 | 1.05 ± 0.087 | 1 ± 0.092
22 | ITPKC (UniProt Q96DU7) | 0.965 ± 0.13 | 0.942 ± 0.046 | 0.986 ± 0.048 | 0.971 ± 0.041 | 1.0284 ± 0.00016 | 0.857 ± 0.11 | 0.886 ± 0.026 | 0.883 ± 0.019

Whole records as entered above. Order of values: NP40-soluble protein abundance (concentration: 0.1mM)	NP40-soluble protein abundance (concentration: 0.5mM)	NP40-soluble protein abundance (concentration: 1mM)	NP40-soluble protein abundance (concentration: 2mM)	NP40-soluble protein abundance (concentration: 4mM)	NP40-soluble protein abundance (concentration: 6mM)	NP40-soluble protein abundance (concentration: 8mM)	NP40-soluble protein abundance (concentration: 10mM)
COG8 (UniProt Q96MW5) is listed as 0.959 ± 0.067	0.925 ± 0.097	0.938 ± 0.057	0.917 ± 0.029	0.937 ± 0.048	0.898 ± 0.068	0.902 ± 0.06	0.975 ± 0.054
CCDC124 (UniProt Q96CT7) is listed as 0.967 ± 0.14	0.944 ± 0.1	1.08 ± 0.15	1.14 ± 0.089	1.3 ± 0.2	1.56 ± 0.2	1.64 ± 0.1	1.96 ± 0.36
